Test results published in the supplement of paper PMC4604168 (melanoma cell lines).
The list shows a part of the results. Repeats are few or missing, and single values can be far off.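 The apoptosis fraction was the count of cleaved-PARP antibody-stained nuclei relative to all DNA-stained nuclei, imaged in 1,536-well plates. Screening doses were set so most cells survived, and baseline and induced cleaved-PARP levels vary greatly across cell lines.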

What was measured:
Experiment in all cases: cleaved PARP positive nuclei fraction relative to DMSO control; melanoma cells; higher = more apoptosis
Conditions in all cases: library dose: low library concentration; 72 h
[1] = tested on: 501Mel
[2] = tested on: A101D
[3] = tested on: A2058
[4] = tested on: A375
[5] = tested on: C32
[6] = tested on: CBRC008 (line from a melanoma biopsy)
[7] = tested on: CBRC014 (line from a melanoma biopsy)
[8] = tested on: CBRC016 (line from a melanoma biopsy)
[9] = tested on: CBRC017 (line from a melanoma biopsy)
[10] = tested on: CBRC034 (line from a melanoma biopsy)
[11] = tested on: COLO792
[12] = tested on: COLO800
[13] = tested on: COLO829
[14] = tested on: G361
[15] = tested on: IPC-298
[16] = tested on: IST-MEL1
[17] = tested on: LB2518-MEL
[18] = tested on: LOXIMVI
[19] = tested on: MEL-HO

Row | SMILES | cleaved PARP positive nuclei fraction [1] | cleaved PARP positive nuclei fraction [2] | cleaved PARP positive nuclei fraction [3] | cleaved PARP positive nuclei fraction [4] | cleaved PARP positive nuclei fraction [5] | cleaved PARP positive nuclei fraction [6] | cleaved PARP positive nuclei fraction [7] | cleaved PARP positive nuclei fraction [8] | cleaved PARP positive nuclei fraction [9] | cleaved PARP positive nuclei fraction [10] | cleaved PARP positive nuclei fraction [11] | cleaved PARP positive nuclei fraction [12] | cleaved PARP positive nuclei fraction [13] | cleaved PARP positive nuclei fraction [14] | cleaved PARP positive nuclei fraction [15] | cleaved PARP positive nuclei fraction [16] | cleaved PARP positive nuclei fraction [17] | cleaved PARP positive nuclei fraction [18] | cleaved PARP positive nuclei fraction [19]
1 | NC1(c2ccc(-c3nc4ccn5c(=O)[nH]nc5c4cc3-c3ccccc3)cc2)CCC1 + CNC(=O)c1cc(Oc2ccc(NC(=O)Nc3ccc(Cl)c(C(F)(F)F)c3)cc2)ccn1 [sorafenib] (first compound 0.4 µM, partner dose 0.4 µM) | 163% | 184% | 94.5% | 50.5% | 67.1% | 95.7% | 95.1% | 143% | 87.6% | 38.4% | 97.3% | 115% | 97.1% | 64.2% | 121% | 63.1% | 163% | 72.5% | 106%
2 | CS(=O)(=O)c1ccc(C(=O)Nc2ccc(Cl)c(-c3ccccn3)c2)c(Cl)c1 [vismodegib] + O=C(O)[C@@H]1[O][Sb](=[O])([O][Sb]2(=[O])[O][C@H]([C@H](O)CO)[C@H](O)[C@H](C(=O)O)[O]2)[O][C@H]([C@H](O)CO)[C@@H]1O [stibogluconate] (first compound 1 µM, partner dose 2 µM) | 64.2% | 81.3% | 118% | 91.2% | 79.3% | 152% | 94.6% | 60.9% | 112% | 108% | 143% | 46.5% | 43.7% | 78.6% | 44.7% | 90.4% | 89.5% | 78.5% | 51.8%
3 | CC(=O)O[C@@]12CO[C@@H]1C[C@H](O)[C@@]1(C)C(=O)[C@H](O)C3=C(C)[C@@H](OC(=O)[C@H](O)[C@@H](NC(=O)OC(C)(C)C)c4ccccc4)C[C@@](O)([C@@H](OC(=O)c4ccccc4)[C@H]21)C3(C)C [Docetaxel] + Cc1nc(Nc2ncc(C(=O)Nc3c(C)cccc3Cl)s2)cc(N2CCN(CCO)CC2)n1 [dasatanib] (first compound 0.0001 µM, partner dose 0.004 µM) | 142% | 411% | 2700% | 2500% | 139% | 517% | 257% | 257% | 289% | 58.2% | 988% | 281% | 457% | 1000% | 437% | 143% | 69.9% | 90.6% | 446%
4 | COc1ccc(C2=N[C@@H](c3ccc(Cl)cc3)[C@@H](c3ccc(Cl)cc3)N2C(=O)N2CCNC(=O)C2)c(OC(C)C)c1 [Nutlin-3] + CC(=O)c1c(C)c2cnc(Nc3ccc(N4CCNCC4)cn3)nc2n(C2CCCC2)c1=O [palbociclib] (first compound 0.1 µM, partner dose 0.04 µM) | 104% | 88.5% | 117% | 198% | 88.5% | 77.9% | 115% | 137% | 109% | 66% | 191% | 78.9% | 68.9% | 111% | 48.1% | 156% | 137% | 164% | 39.8%
5 | CN(c1ncccc1CNc1nc(Nc2ccc3c(c2)CC(=O)N3)ncc1C(F)(F)F)S(C)(=O)=O + Nc1ccn([C@@H]2O[C@H](CO)[C@@H](O)C2(F)F)c(=O)n1 [gemcitabine] (first compound 0.08 µM, partner dose 0.0004 µM) | 240% | 113% | 116% | 159% | 114% | 30.4% | 130% | 260% | 130% | 83.7% | 140% | 333% | 220% | 212% | 91.3% | 172% | 90.9% | 40.2% | 129%
6 | C[C@@H](N)c1ccc(C(=O)Nc2ccnc3[nH]ccc23)cc1 + C[C@]1(O)C[C@@H](c2nc(-c3ccc4ccc(-c5ccccc5)nc4c3)c3c(N)nccn32)C1 [OSI906] (first compound 0.4 µM, partner dose 0.4 µM) | 80.3% | 50.9% | 226% | 783% | 173% | 353% | 249% | 125% | 168% | 120% | 217% | 121% | 101% | 126% | 132% | 61% | 138% | 86.9% | 139%
7 | C[C@@H](N)c1ccc(C(=O)Nc2ccnc3[nH]ccc23)cc1 + Cn1c(=O)n(-c2ccc(C(C)(C)C#N)cc2)c2c3cc(-c4cnc5ccccc5c4)ccc3ncc21 [NVP-BEZ235] (first compound 0.4 µM, partner dose 0.004 µM) | 98.8% | 55.1% | 141% | 223% | 80.5% | 289% | 95% | 74.1% | 155% | 128% | 140% | 100% | 118% | 134% | 87.9% | 138% | 164% | 145% | 93.6%
8 | NC(=O)c1ccc(N(C(N)=O)c2c(F)cccc2F)nc1-c1ccc(F)cc1F + Cn1nnc2c(C(N)=O)ncn2c1=O [temozolomide] (first compound 0.4 µM, partner dose 2 µM) | 77.7% | 50.1% | 166% | 137% | 77.5% | 42.2% | 89.7% | 351% | 91.9% | 32.7% | 109% | 117% | 162% | 131% | 85.1% | 146% | 112% | 33.9% | 267%
